Test results as given in paper PMC11046792.
These are yes or no findings as the source states them, for the method shown. In cells and extracts the contact can be indirect. Some binding calls cover weakened binding; strength is not graded here. For part of these data: Tags and fused reporters may be left off the sequences shown. Values belong to the binder of their own block, whether it stands above or below them.

Assays:
[1] = molecular target: T1, Zinc and ring finger 1 (E3 ubiquitin-protein ligase ZNRF1) (mouse (endogenous in primary mouse aortic ECs and mouse aortae)) (UniProt Q91V17); experiment: co-IP; lysates of primary mouse aortic endothelial cells (NG or HG; NCEH1 shRNA or overexpression, ZNRF1 overexpression or knock-down); lysis buffer with 20 mM Tris pH 7.5, 150 mM NaCl, 1% Triton X-100; immunoprecipitation 2 h at 4 °C, Protein G PLUS-Agarose, immunoblot
T1 sequence: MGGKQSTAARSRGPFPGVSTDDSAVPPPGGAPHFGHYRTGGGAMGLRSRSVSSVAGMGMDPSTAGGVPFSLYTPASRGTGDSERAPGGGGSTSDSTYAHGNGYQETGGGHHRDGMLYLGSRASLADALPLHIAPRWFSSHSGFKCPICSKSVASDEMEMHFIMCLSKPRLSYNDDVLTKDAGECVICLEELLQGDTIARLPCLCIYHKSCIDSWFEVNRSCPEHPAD

[2] = molecular target: T2, HA-ZNRF1 (full-length ZNRF1 in pcDNA3.1-HA; printed as pcDNA3.1-HA-NKAα1) (UniProt Q91V17); experiment: co-IP; HEK293 cells transfected with tagged NCEH1 and ZNRF1 plasmids (1 µg, 6 h, then 48 h); interactions examined by immunoblotting
T2 sequence: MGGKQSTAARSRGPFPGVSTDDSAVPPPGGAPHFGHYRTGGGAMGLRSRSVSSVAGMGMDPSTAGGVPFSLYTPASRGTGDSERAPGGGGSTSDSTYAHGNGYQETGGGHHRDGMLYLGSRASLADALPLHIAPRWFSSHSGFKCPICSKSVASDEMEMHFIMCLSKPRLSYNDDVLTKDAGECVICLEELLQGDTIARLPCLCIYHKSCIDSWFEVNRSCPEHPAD

[3] = molecular target: T3, caveolin-1 (mouse (endogenous in mouse aortae and primary mouse aortic ECs)) (UniProt P49817); experiment: co-IP; lysates of primary mouse aortic endothelial cells (NG or HG; NCEH1 shRNA or overexpression, ZNRF1 overexpression or knock-down); lysis buffer with 20 mM Tris pH 7.5, 150 mM NaCl, 1% Triton X-100; immunoprecipitation 2 h at 4 °C, Protein G PLUS-Agarose, immunoblot
T3 sequence: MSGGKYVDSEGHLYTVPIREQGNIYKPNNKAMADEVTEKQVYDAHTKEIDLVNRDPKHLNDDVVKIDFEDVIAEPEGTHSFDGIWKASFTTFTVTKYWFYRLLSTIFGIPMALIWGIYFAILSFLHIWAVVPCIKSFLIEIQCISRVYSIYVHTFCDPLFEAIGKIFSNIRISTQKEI

[4] = molecular target: T3, caveolin-1 (mouse (endogenous in mouse aortae and primary mouse aortic ECs)); experiment: co-IP; lysates of mouse aortae (NG or HG ex vivo, normal diet or HFD; endothelial NCEH1 shRNA or overexpression by AAV); lysis buffer with 20 mM Tris pH 7.5, 150 mM NaCl, 1% Triton X-100; immunoprecipitation 2 h at 4 °C, Protein G PLUS-Agarose, immunoblot
[5] = molecular target: T1, Zinc and ring finger 1 (E3 ubiquitin-protein ligase ZNRF1) (mouse (endogenous in primary mouse aortic ECs and mouse aortae)); experiment: as above

B2: Flag-NCEH1 (pcDNA3.1-Flag-NCEH1) (enzyme, UniProt Q8BLF1 1-408)
chain: MRSSCVLLAALLALAAYYVYIPLPSAVSDPWKLMLLDATFRGAQQVSNLIHSLGLNHHLIALNFIITSFGKQSARSSPKVKVTDTDFDGVEVRVFEGSPKPEEPLRRSVIYIHGGGWALASAKISYYDQLCTTMAEELNAVIVSIEYRLVPQVYFPEQIHDVIRATKYFLQPEVLDKYKVDPGRVGISGDSAGGNLAAALGQQFTYVASLKNKLKLQALVYPVLQALDFNTPSYQQSMNTPILPRHVMVRYWLDYFKGNYDFVEAMIVNNHTSLDVERAAALRARLDWTSLLPSSIKKNYKPIMQTTGNARIVQEIPQLLDAAASPLIAEQEVLEALPKTYILTCEHDVLRDDGIMYAKRLESAGVNVTLDHFEDGFHGCMIFTSWPTNFSVGIRTRNSYIKWLDQNL
binding [2]: binds

B4: caveolin-1 (protein, UniProt P49817 1-178)
chain: MSGGKYVDSEGHLYTVPIREQGNIYKPNNKAMADEVTEKQVYDAHTKEIDLVNRDPKHLNDDVVKIDFEDVIAEPEGTHSFDGIWKASFTTFTVTKYWFYRLLSTIFGIPMALIWGIYFAILSFLHIWAVVPCIKSFLIEIQCISRVYSIYVHTFCDPLFEAIGKIFSNIRISTQKEI
binding [1]: binds
binding [5]: binds

Results, then the binder that gave them:

binding [1]: binds
B1: neutral cholesterol ester hydrolase 1 (enzyme, UniProt Q8BLF1 1-408)
chain: MRSSCVLLAALLALAAYYVYIPLPSAVSDPWKLMLLDATFRGAQQVSNLIHSLGLNHHLIALNFIITSFGKQSARSSPKVKVTDTDFDGVEVRVFEGSPKPEEPLRRSVIYIHGGGWALASAKISYYDQLCTTMAEELNAVIVSIEYRLVPQVYFPEQIHDVIRATKYFLQPEVLDKYKVDPGRVGISGDSAGGNLAAALGQQFTYVASLKNKLKLQALVYPVLQALDFNTPSYQQSMNTPILPRHVMVRYWLDYFKGNYDFVEAMIVNNHTSLDVERAAALRARLDWTSLLPSSIKKNYKPIMQTTGNARIVQEIPQLLDAAASPLIAEQEVLEALPKTYILTCEHDVLRDDGIMYAKRLESAGVNVTLDHFEDGFHGCMIFTSWPTNFSVGIRTRNSYIKWLDQNL

binding [3]: binds
binding [4]: binds
B3: endothelial nitric oxide synthase (enzyme, UniProt P70313 1-1202)
chain: MGNLKSVGQEPGPPCGLGLGLGLGLCGKQGPASPAPEPSQAPAPPSPTRPAPDHSPPLTRPPDGPRFPRVKNWEVGSITYDTLSAQAQQDGPCTSRRCLGSLVFPRKLQSRPTQGPSPTEQLLGQARDFINQYYNSIKRSGSQAHEQRLQEVEAEVAATGTYQLRESELVFGAKQAWRNAPRCVGRIQWGKLQVFDARDCRTAQEMFTYICNHIKYATNRGNLRSAITVFPQRCPGRGDFRIWNSQLIRYAGYRQQDGSVRGDPANVEITELCIQHGWTPGNGRFDVLPLLLQAPDEPPELFTLPPEMVLEVPLEHPTLEWFAALGLRWYALPAVSNMLLEIGGLEFPAAPFSGWYMSSEIGMRDLCDPHRYNILEDVAVCMDLDTRTTSSLWKDKAAVEINVAVLHSYQLAKVTIVDHHAATASFMKHLENEQKARGGCPADWAWIVPPISGSLTPVFHQEMVNYFLSPAFRYQPDPWKGSAAKGAGITRKKTFKEVANAVKISASLMGTVMAKRVKATILYGSETGRAQSYAQQLGRLFRKAFDPRVLCMDEYDVVSLEHEALVLVVTSTFGNGDPPENGESFAAALMEMSGPYNSSPRPEQHKSYKIRFNSVSCSDPLVSSWRRKRKESSNTDSAGALGTLRFCVFGLGSRAYPHFCAFARAVDTRLEELGGERLLQLGQGDELCGQEEAFRGWAQAAFQAACETFCVGEDAKAAARDIFSPKRSWKRQRYRLSTQAESLQLLPGLTHVHRRKMFQATILSVENLQSSKSTRATILVRLDTGGQEGLQYQPGDHIGVCPPNRPGLVEALLSRVEDPPPSTEPVAVEQLEKGSPGGPPPGWVRDPRLPPCTLRQALTYFLDITSPPSPRLLRLLSTLAEESSEQQELEALSQDPRRYEEWKWFSCPTLLEVLEQFPSVALPAPLILTQLPLLQPRYYSVSSAPSAHPGEIHLTIAVLAYRTQDGLGPLHYGVCSTWMSQLKAGDPVPCFIRGAPSFRLPPDPNLPCILVGPGTGIAPFRGFWQDRLHDIEIKGLQPAPMTLVFGCRCSQLDHLYRDEVLDAQQRGVFGQVLTAFSRDPGSPKTYVQDLLRTELAAEVHRVLCLEQGHMFVCGDVTMATSVLQTVQRILATEGGMELDEAGDVIGVLRDQQRYHEDIFGLTLRTQEVTSRIRTQSFSLQERQLRGAVPWSFDPPGPEIPGS
